{"source": "patent US7160867B2", "about": "(Isotechnika, Inc., priority 2003, dated 2007)", "origin": "cited, not measured here", "details": "cited from earlier work"}
{"smiles": "CO[C@H]1C[C@@H]2CC[C@@H](C)[C@@](O)(O2)C(=O)C(=O)N2CCCC[C@H]2C(=O)O[C@H]([C@H](C)C[C@@H]2CC[C@@H](O)[C@H](OC)C2)CC(=O)[C@H](C)/C=C(\\C)[C@@H](O)[C@@H](OC)C(=O)[C@H](C)C[C@H](C)/C=C/C=C/C=C/1C", "note": "[Rapamycin]", "values": [{"measurement": "solubility in water", "result": "sparingly soluble"}]}
